# For part of these data: The same purity stands for every peptide and may come from a single statement.
# Tests used:
# [1] = general procedure: Fmoc solid-phase peptide synthesis; Fmoc-protected Rink Amide NovaGel resin (0.7 mmol/g); Fmoc-protected Wang NovaGel resin (0.1 mmol/g); HBTU, HOBt, DIPEA; conditions: whole synthesis
# [2] = general procedure: Fmoc solid-phase peptide synthesis; Rink resin; HBTU, HOBt, DIPEA; conditions: whole synthesis; for isolated yield: on resin loading
substance,measurement,setting,value
Acetyl-Asn-Trp-Thr-Pro-Gln-Ala-Met-Leu-Tyr-Leu-Lys-Gly-Ala-Gln-Lys(Arg-Gly-Arg-(C(O)(CH2)2(CF2)7CF3)),final HPLC purity,[1]; 220 nm,>95%
same,isolated yield,[2]; scale 21 μmol,5.6%
same,isolated mass,[2]; scale 21 μmol,3.1 mg
Acetyl-Asn-Trp-Thr-Pro-Gln-Ala-Met-Leu-Tyr-Leu-Lys-Gly-Ala-Gln-Lys(C(O)(CH2)2(CF2)7CF3),final HPLC purity,[1]; 220 nm,>95%
same,isolated yield,[2]; scale 22 μmol,8.6%
same,isolated mass,[2]; scale 22 μmol,4.5 mg
CF3(CF2)7(CH2)2C(O)-Arg-Gly-Arg-Asn-Trp-Thr-Pro-Gln-Ala-Met-Leu-Tyr-Leu-Lys-Gly-Ala-Gln,final HPLC purity,[1]; 220.8 nm,>95%
same,isolated yield,[2]; scale 29 μmol,13%
same,isolated mass,[2]; scale 29 μmol,10.5 mg
CF3(CF2)7(CH2)2C(O)-Asn-Trp-Thr-Pro-Gln-Ala-Met-Leu-Tyr-Leu-Lys-Gly-Ala-Gln,final HPLC purity,[1]; 220 nm,>95%
same,isolated yield,[2]; scale 23 μmol,14%
same,isolated mass,[2]; scale 23 μmol,6.9 mg
